These results are taken from the supplement of paper PMC10727501.

Molecules are shown by their SMILES. This is one part of the list. Repeats in this data set agree poorly, so a single value says little.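 Free-swimming zebrafish larvae were scored for O-bend response probability to dark flashes (naive: first five; training: remaining flashes of four 60-flash blocks; test: later 60-flash block) and for turning toward alternating leftward/rightward LED motion (OMR). Six treated larvae were compared with sixty 0.1% DMSO controls; |SSMD|≥2 defined a hit.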

What all share (conditions): 10 µM; pre-incubation: 30-90 min
The test system of assay [1] is Danio rerio larvae (5 dpf, TLF). In words: OMR-Perf (SSMD vs DMSO vehicle); higher = higher than vehicle (e.g. higher dark-flash O-bend response probability, or better optomotor performance).
The test system is the same in assay [2]. The experiment in a line: Prob-Test (SSMD vs DMSO vehicle); higher = higher than vehicle (e.g. higher dark-flash O-bend response probability, or better optomotor performance).
Assay [3] has the same test system. The experiment in a line: Prob-Naive (SSMD vs DMSO vehicle); higher = higher than vehicle (e.g. higher dark-flash O-bend response probability, or better optomotor performance).
The test system is the same in assay [4]. The experiment in a line: Prob-Train (SSMD vs DMSO vehicle); higher = higher than vehicle (e.g. higher dark-flash O-bend response probability, or better optomotor performance).

For `CCn1c(N)c(C(=O)NC)c(=O)c2ccc(C#C[C@@](C)(O)COC)nc21`, in assay [1], the OMR-Perf was determined as 0.515. For the same compound, the Prob-Test in assay [2] was -0.169. Moreover, the Prob-Naive in assay [3] amounted to 0.145. The compound also showed a Prob-Train in assay [4] of 0.189.

Take `Cl.O[C@H](CNC[C@@H](O)[C@H]1CCc2cc(F)ccc2O1)[C@@H]1CCc2cc(F)ccc2O1` [Nebivolol]: the OMR-Perf in assay [1] is -0.698. This compound gave a Prob-Test in assay [2] of 0.0374. The same compound showed a Prob-Naive in assay [3] of -0.0337. The compound further registered a Prob-Train in assay [4] of -1.11.

In assay [1], `Cc1nc(Nc2ncc(C(=O)Nc3c(C)cccc3Cl)s2)cc(N2CCN(CCO)CC2)n1` [Dasatinib] had an OMR-Perf of 0.426. The Prob-Test in assay [2] was -0.0419. The Prob-Naive in assay [3] was 0.221. In addition, the Prob-Train in assay [4] is -0.306.

Compound `Cl.N#Cc1ccc2[nH]cc(CCCCN3CCN(c4ccc5oc(C(N)=O)cc5c4)CC3)c2c1` [Vilazodone HCl] displayed an OMR-Perf in assay [1] of -0.399. Moreover, the Prob-Test in assay [2] was -1.51. The compound further returned a Prob-Naive in assay [3] of -1.6. Moreover, in assay [4], the Prob-Train was -2.9.

For `C=C(c1ccc(C(=O)O)cc1)c1cc2c(cc1C)C(C)(C)CCC2(C)C` [Bexarotene], the OMR-Perf in assay [1] is -1.07. In assay [2], the Prob-Test was -1.63. This compound also gave a Prob-Naive in assay [3] of 0.454. The Prob-Train in assay [4] was -0.385.

`CC(Oc1cc(-c2cnn(C3CCNCC3)c2)cnc1N)c1c(Cl)ccc(F)c1Cl` [(S)-crizotinib]: in assay [1], the OMR-Perf is -0.64. Also, the Prob-Test in assay [2] is -0.442. In assay [3], this compound displayed a Prob-Naive of -0.344. This compound also returned a Prob-Train in assay [4] of -0.279.

In the case of `C=CCNC(N)=S` [Allylthiourea], in assay [1], the OMR-Perf worked out at 0.508. Also, the Prob-Test in assay [2] was -0.255. The same compound displayed a Prob-Naive in assay [3] of 0.118. The Prob-Train in assay [4] amounted to 0.0528.

`CS(=O)(=O)N1CCN(Cc2cc3nc(-c4cccc5[nH]ncc45)nc(N4CCOCC4)c3s2)CC1` displayed an OMR-Perf in assay [1] of -0.436. In assay [2], this compound displayed a Prob-Test of -0.464. In assay [3], this compound registered a Prob-Naive of -0.225. The Prob-Train in assay [4] is -0.771.

`C[C@]12CCC(=O)C=C1[C@@H]1C[C@@H]1[C@H]1[C@@H]3[C@@H]4C[C@@H]4[C@]4(CCC(=O)O4)[C@@]3(C)CC[C@H]12` [Drospirenone] yielded an OMR-Perf in assay [1] of -0.819. Also, the Prob-Test in assay [2] was -1.73. Besides, the Prob-Naive in assay [3] was -3.15. The compound further displayed a Prob-Train in assay [4] of -2.05.

Compound `O=P(O)(O)C(O)(Cc1cccnc1)P(=O)(O)[O][Na]` (configuration not stated) [Risedronate sodium] gave an OMR-Perf in assay [1] of 0.0047. In addition, the Prob-Test in assay [2] came to 0.293. In addition, the Prob-Naive in assay [3] came to 0.134. This compound showed a Prob-Train in assay [4] of 0.233.

`COc1cnc(NS(=O)(=O)c2ccc(N)cc2)nc1` [Sulfameter]: the OMR-Perf in assay [1] was -0.652. Besides, the Prob-Test in assay [2] worked out at 0.0481. Moreover, the Prob-Naive in assay [3] was found to be 0.0311. In assay [4], this compound registered a Prob-Train of 0.542.

In turn, `CCN[C@H]1CN(CCCOC)S(=O)(=O)c2sc(S(N)(=O)=O)cc21` [Brinzolamide] came in with an OMR-Perf in assay [1] of -0.847. The compound further yielded a Prob-Test in assay [2] of -0.481. The same compound came in with a Prob-Naive in assay [3] of 0.302. Also, in assay [4], the Prob-Train is 0.321.

Take `O=C([C@@H](Cc1cccc(C(F)(F)F)c1)NS(=O)(=O)c1cc(F)c2c(c1)CCNC2)N1CCCC1`: in assay [1], the OMR-Perf stood at 0.0775. In addition, the Prob-Test in assay [2] was -0.395. Moreover, the Prob-Naive in assay [3] stood at 0. Moreover, in assay [4], the Prob-Train was 0.0784.

Take `CN(C)CCN(Cc1cccs1)c1ccccn1.Cl` [Methapyrilene HCl]: the OMR-Perf in assay [1] is -0.418. This compound had a Prob-Test in assay [2] of 0.286. This compound also registered a Prob-Naive in assay [3] of -0.154. Besides, the Prob-Train in assay [4] was found to be 0.28.

In assay [1], `CC(=O)OCC(=O)[C@]1(O)CC[C@H]2[C@@H]3CCC4=CC(=O)C=C[C@]4(C)[C@@H]3[C@H](O)C[C@@]21C` [Prednisolone acetate (Omnipred)] came in with an OMR-Perf of 0.193. Also, the Prob-Test in assay [2] was 0.373. Also, the Prob-Naive in assay [3] worked out at 0.131. In addition, the Prob-Train in assay [4] was 0.208.

`COc1ccc2[n-]c(S(=O)Cc3ncc(C)c(OC)c3C)nc2c1.COc1ccc2[n-]c(S(=O)Cc3ncc(C)c(OC)c3C)nc2c1.[Mg+2]` (configuration not stated) [Esomeprazole magnesium (Nexium)] registered an OMR-Perf in assay [1] of -0.534. Further, the Prob-Test in assay [2] is -0.591. The compound also returned a Prob-Naive in assay [3] of -0.142. The same compound displayed a Prob-Train in assay [4] of -0.819.

Compound `C=C1c2cccc(O)c2C(=O)C2=C(O)[C@]3(O)C(=O)C(C(N)=O)=C(O)[C@H](N(C)C)[C@@H]3[C@H](O)[C@H]12.Cl` [Methacycline HCl] displayed an OMR-Perf in assay [1] of -0.152. The Prob-Test in assay [2] was -0.69. The compound also came in with a Prob-Naive in assay [3] of 0.402. The compound further came in with a Prob-Train in assay [4] of 0.0904.

With `CCCCOc1cc(C(=O)NCCN(CC)CC)c2ccccc2n1.Cl` [Dibucaine HCl], the OMR-Perf in assay [1] is -0.894. Further, the Prob-Test in assay [2] is -0.993. Also, the Prob-Naive in assay [3] was 0.232. Also, the Prob-Train in assay [4] amounted to 0.0323.

For the compound `CN(C)CCCN1c2ccccc2Sc2ccc(Cl)cc21.Cl` [Chlorpromazine HCl], in assay [1], the OMR-Perf was -0.467. The compound further yielded a Prob-Test in assay [2] of -1.76. Besides, the Prob-Naive in assay [3] was -0.949. This compound also returned a Prob-Train in assay [4] of -1.38.

The compound `C=CC(=O)N1CCC[C@@H](n2nc(-c3ccc(Oc4ccccc4)cc3)c3c(N)ncnc32)C1` returned an OMR-Perf in assay [1] of -0.712. This compound displayed a Prob-Test in assay [2] of -1.96. Besides, the Prob-Naive in assay [3] is -0.397. Besides, the Prob-Train in assay [4] is -1.58.

The compound `CC(=O)c1c(C)c2cnc(Nc3ccc(N4CCNCC4)cn3)nc2n(C2CCCC2)c1=O.O=S(=O)(O)CCO` came in with an OMR-Perf in assay [1] of -0.121. The compound further showed a Prob-Test in assay [2] of 0.0517. In addition, in assay [3], the Prob-Naive was -0.239. The Prob-Train in assay [4] stood at 0.0376.

On to `CCCCN(Cc1ccc(C(=O)NO)cc1)C(=O)Nc1ccccc1` [Nexturastat A], for which, in assay [1], the OMR-Perf is -0.116. Besides, the Prob-Test in assay [2] is 0.206. In assay [3], this compound gave a Prob-Naive of 0.446. The Prob-Train in assay [4] was 0.155.

In assay [1], `CC(C)(O)c1ccccc1CC[C@@H](SCC1(CC(=O)[O-])CC1)c1cccc(/C=C/c2ccc3ccc(Cl)cc3n2)c1.[Na+]` [Montelukast Sodium] showed an OMR-Perf of -0.0994. The Prob-Test in assay [2] was -1.52. In assay [3], the Prob-Naive is -0.932. In assay [4], this compound displayed a Prob-Train of -1.05.
